At least one compound was matched to its structure with a doubt left.
Legend:
[1] = system: M2−Kir3.2 0-46 hybrid protein; experiment: Electrical flux of M2−Kir3.2 0-46; assay type: cell-based; settings: M2−Kir3.2 0-46 stimulated with Ach
[2] = system: M2−Kv1.1 0-268 hybrid protein; experiment: Electrical current of M2−Kv1.1 0-268; assay type: cell-based; settings: M2−Kv1.1 0-268 stimulated by Ach

Question: Which “generation of electrical flux on stimulation” value [1] does the source give for `CC(=O)OCC[N+](C)(C)C` [ACh, acetylcholine] here?
Answer: able to generate an electrical flux

Question: And the “generation of electrical current on stimulation” value [2]?
Answer: able to generate an electrical current
